PubChem BioAssay AID504786, Drosophila RNAi Screening Center | 2011

Purpose: 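Fly genes required for HIF-dependent transcription when hypoxia is mimicked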 (primary screen)
Cell system: Drosophila S2 cells with a stable HIF luciferase reporter
Knock-down reagent: long dsRNA against Drosophila genes, about 0.2 µg dsRNA per well of a 384-well plate
Timing: three days of knock-down, then 20 h of DFO before reading
Treatment: desferrioxamine (DFO) at 100 µM, an iron chelator that mimics hypoxia, for 20 h
Measurement: 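HIF reporter luminescence in cells given 100 µM DFO for 20 h, using the mouse ldh-a hypoxia-response element, scored as per-plate z-scores; higher means greater loss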
Reading the numbers: z-score: higher = stronger loss of HIF reporter signal
The deposit covers about 21,000 reagents; below is a random part of those with a known target gene and a result. 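Primary screen; positive scores mean lost reporter signal, so the sign may be inverted from the usual convention.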 Names joined by + are all predicted targets of the reagent.

What did the screen give for Pp1-87B [SID104196586]?
z-score, replicate 1: 1.1; z-score, replicate 2: 0.9

With CG18853 [SID104186587], what does the deposit list?
z-score, replicate 1: -0.2; z-score, replicate 2: 0

Which result is listed for Grx1 [SID104190519]?
z-score, replicate 1: 0.1; z-score, replicate 2: 0.6

What is on record for CG8891 [SID104182912]?
z-score, replicate 1: -0.4; z-score, replicate 2: -0.6

What is on record for CG12438 [SID104181959]?
z-score, replicate 1: -0.1; z-score, replicate 2: 0.1

Which result is listed for CG12831 [SID104185971]?
z-score, replicate 1: -0.2; z-score, replicate 2: -0.1

For CG14537 [SID104182187], how do the results read?
z-score, replicate 1: -0.3; z-score, replicate 2: -0.4

With kek6 [SID104195091], how do the results read?
z-score, replicate 1: -0.4; z-score, replicate 2: -0.4

What did the screen give for CG13226 [SID104186138]?
z-score, replicate 1: -0.1; z-score, replicate 2: -0.2

For Polr3D [SID104190277], what was measured?
z-score, replicate 1: 0.5; z-score, replicate 2: 0.8

Which result is listed for cv-2 [SID104183653]?
z-score, replicate 1: 0.3; z-score, replicate 2: 0.4

Which result is listed for cv-2 [SID104184053]?
z-score, replicate 1: -0.2; z-score, replicate 2: -0.3

What did the screen give for Sp1 [SID104197414]?
z-score, replicate 1: -0.2; z-score, replicate 2: -0.3

What did the screen give for Sp1 [SID104198509]?
z-score, replicate 1: -0.3; z-score, replicate 2: -0.4

What did the screen give for Tret1-2 [SID104186909]?
z-score, replicate 1: -0.4; z-score, replicate 2: -0.8

For Sse [SID104189538], how do the results read?
z-score, replicate 1: -0.1; z-score, replicate 2: 0.5

For alpha-Man-IIa [SID104195185], what was measured?
z-score, replicate 1: -0.3; z-score, replicate 2: -0.4

For Cph [SID104197299], how do the results read?
z-score, replicate 1: -0.3; z-score, replicate 2: -0.3

How did the screen score Cph [SID104198226]?
z-score, replicate 1: -0.3; z-score, replicate 2: -0.9

With CG6614 [SID104182766], what does the deposit list?
z-score, replicate 1: -0.3; z-score, replicate 2: -0.4

How did the screen score chm [SID104183133]?
z-score, replicate 1: -0.3; z-score, replicate 2: -0.1

With CG5886 [SID104195700], what does the deposit list?
z-score, replicate 1: -0.4; z-score, replicate 2: -0.4

Which result is listed for Ggamma1 [SID104187227]?
z-score, replicate 1: -0.5; z-score, replicate 2: -0.6

With mst [SID104200374], how do the results read?
z-score, replicate 1: -0.2; z-score, replicate 2: -0.5

With CG13613 [SID104194408], how do the results read?
z-score, replicate 1: -0.4; z-score, replicate 2: 0.4

What is on record for CG13713 [SID104188114]?
z-score, replicate 1: -0.4; z-score, replicate 2: -0.6

What did the screen give for CG31516 [SID104191786]?
z-score, replicate 1: -0.2; z-score, replicate 2: -0.3

What is on record for CG15256 [SID104181732]?
z-score, replicate 1: -0.2; z-score, replicate 2: -0.1

With Mtr4 [SID104183352], how do the results read?
z-score, replicate 1: 2.3; z-score, replicate 2: 3.6

For Pngl [SID104184706], what was measured?
z-score, replicate 1: -0.4; z-score, replicate 2: -0.1

What did the screen give for Ada3 [SID104200113]?
z-score, replicate 1: 0.1; z-score, replicate 2: -0.8

With Ada3 [SID104200114], how do the results read?
z-score, replicate 1: -0.3; z-score, replicate 2: -0.5

With CG9380 [SID104184341], what was measured?
z-score, replicate 1: -0.2; z-score, replicate 2: 0.1

For AP-2sigma [SID104195749], how do the results read?
z-score, replicate 1: 0.7; z-score, replicate 2: -0.5

What did the screen give for CG10809 [SID104189594]?
z-score, replicate 1: -0.2; z-score, replicate 2: 0

Which result is listed for 128up [SID104184819]?
z-score, replicate 1: -0.4; z-score, replicate 2: -0.5

What is on record for CG7320 [SID104190602]?
z-score, replicate 1: -0.3; z-score, replicate 2: 0.2

What did the screen give for CG14089 [SID104189885]?
z-score, replicate 1: -0.2; z-score, replicate 2: -0.6

With Mcr [SID104183158], how do the results read?
z-score, replicate 1: -0.3; z-score, replicate 2: -0.3

With CG42539 (retired record) [SID104193483], how do the results read?
z-score, replicate 1: -0.3; z-score, replicate 2: -0.3

For Ugt304A1 [SID104194919], how do the results read?
z-score, replicate 1: -0.2; z-score, replicate 2: 0.4

For CG2260 [SID104198015], what was measured?
z-score, replicate 1: 0.2; z-score, replicate 2: 1.6

Which result is listed for Argl + CG9515 [SID104183035]?
z-score, replicate 1: -0.4; z-score, replicate 2: -0.6

What is on record for Argl + CG9515 [SID104183037]?
z-score, replicate 1: -0.3; z-score, replicate 2: -0.3

With Pp1-13C [SID104200061], how do the results read?
z-score, replicate 1: 0; z-score, replicate 2: 1.1

For CG14683 [SID104196827], how do the results read?
z-score, replicate 1: -0.1; z-score, replicate 2: 0.2

For CG32305 [SID104188406], how do the results read?
z-score, replicate 1: -0.2; z-score, replicate 2: -0.5

What did the screen give for Grx1t [SID104184322]?
z-score, replicate 1: -0.4; z-score, replicate 2: -0.5

Which result is listed for Cyt-b5 [SID104187184]?
z-score, replicate 1: -0.3; z-score, replicate 2: 0.1

For CG7432 [SID104196035], what was measured?
z-score, replicate 1: 0.1; z-score, replicate 2: -0.4

How did the screen score pins [SID104196835]?
z-score, replicate 1: 0; z-score, replicate 2: 0.3

Targets listed so far whose target name starts with P or p (5):
Pp1-87B [SID104196586] — z-score, replicate 1: 1.1; z-score, replicate 2: 0.9
Polr3D [SID104190277] — z-score, replicate 1: 0.5; z-score, replicate 2: 0.8
Pngl [SID104184706] — z-score, replicate 1: -0.4; z-score, replicate 2: -0.1
Pp1-13C [SID104200061] — z-score, replicate 1: 0; z-score, replicate 2: 1.1
pins [SID104196835] — z-score, replicate 1: 0; z-score, replicate 2: 0.3
